Data as given in PubChem BioAssay AID1224830 (NIAID, 2016)
Test: 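Host factors that control LPS-induced TNF expression in human macrophages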 (primary screen). System: human THP-1 monocytic leukaemia cells, TNF dual-luciferase reporter clone, PMA-differentiated to macrophage-like cells. Knock-down reagent: siRNA pool against human genes, 50 nM. Duration: LPS for 4 h, given about 3 days after siRNA transfection. Treatment: bacterial LPS (TLR4 ligand), 10 ng/ml. Read-out: 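Ratio of firefly to renilla light, scaled to the plate median and expressed as a robust z-score per replicate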. Direction: TNF reporter robust z-score: higher = stronger TNF reporter response to LPS. Call rule: 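Each well counts as active if its z-score is over 2.8 or under -1.5; controls are left without a call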.
Shown is an unselected part of about 18,000 deposited reagents. About 2,900 of all reagents (16%) were called active. 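Calls are made per well; low scores hint the gene aids the LPS response, high scores that it dampens it.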 Entries without a mark were called inactive. Repeated entries: four replicate wells of each siRNA pool.

Gene | TNF reporter robust z-score
CCL4L1 | 0.99
CCL4L1 | 0.67
CCL4L1 | 0.26
CCL4L1 | 0.56
NFIC | -1.03
NFIC | -0.05
NFIC | -0.69
NFIC | -0.37
ALDH3A2 | -1.22
ALDH3A2 | -0.09
ALDH3A2 | -1.17
ALDH3A2 | -1.12
PATZ1 | -0.21
PATZ1 | 1.04
PATZ1 | -0.7
PATZ1 | -1.27
ANKRD30A | -0.31
ANKRD30A | 0.45
ANKRD30A | 0.29
ANKRD30A | 0.69
IFNA1 | 1.09
IFNA1 | -0.35
IFNA1 | 2.83 (active)
IFNA1 | 0.27
SGK1 | -0.75
SGK1 | 0.11
SGK1 | 0.18
SGK1 | -1.31
LRTOMT | 0.33
LRTOMT | 1
LRTOMT | 0.56
LRTOMT | 1.17
OTOA | -0.32
OTOA | -0.15
OTOA | 1.46
OTOA | 1.54
STARD6 | 0.43
STARD6 | 0.3
STARD6 | 0.08
STARD6 | 0.72
FIBIN | -0.15
FIBIN | -0.82
FIBIN | 0.5
FIBIN | 1.2
MYLIP | -0.19
MYLIP | -1.19
MYLIP | -1.14
MYLIP | 0.58
HPX | -1.18
HPX | -1.28
HPX | -1.35
HPX | -1.32
CEP85L | 0.69
CEP85L | 2.04
CEP85L | 0
CEP85L | 0.96
LPP | -0.49
LPP | -0.71
LPP | 0.03
LPP | -0.33
ZNF793 | -0.98
ZNF793 | -0.35
ZNF793 | -0.59
ZNF793 | 1.64
TGIF2LY | -0.32
TGIF2LY | 0.09
TGIF2LY | 0.58
TGIF2LY | -0.75
DLAT | 1.14
DLAT | -0.96
DLAT | 1.36
DLAT | 1.77
MAGOHB | -0.15
MAGOHB | 1.39
MAGOHB | -0.05
MAGOHB | 1.89
COA1 | -0.28
COA1 | -1.14
COA1 | -0.61
COA1 | -1.06
PLK2 | 1.92
PLK2 | 1.59
PLK2 | 1.75
PLK2 | 2.52
TIGIT | -0.96
TIGIT | 0.6
TIGIT | 0.46
TIGIT | 0.27
KCNN1 | -1.17
KCNN1 | -0.51
KCNN1 | -0.66
KCNN1 | -0.37
GMPR2 | -0.96
GMPR2 | -0.33
GMPR2 | -0.79
GMPR2 | -0.3
CCL15 | -1.44
CCL15 | -0.87
CCL15 | -0.27
CCL15 | -0.77
RGL2 | 1.44
RGL2 | 2.08
RGL2 | 0.96
RGL2 | 1.17
TOP2B | -0.32
TOP2B | 0
TOP2B | 0.01
TOP2B | 0.61
EXOSC7 | 0.53
EXOSC7 | 1.15
EXOSC7 | 1.02
EXOSC7 | 0.98

Reformatted: entries from further up.
TGIF2LY: TNF reporter robust z-score = 0.09
TGIF2LY: TNF reporter robust z-score = 0.58
TGIF2LY: TNF reporter robust z-score = -0.75
DLAT: TNF reporter robust z-score = 1.14
DLAT: TNF reporter robust z-score = -0.96
DLAT: TNF reporter robust z-score = 1.36
DLAT: TNF reporter robust z-score = 1.77
MAGOHB: TNF reporter robust z-score = -0.15
MAGOHB: TNF reporter robust z-score = 1.39
MAGOHB: TNF reporter robust z-score = -0.05
MAGOHB: TNF reporter robust z-score = 1.89
COA1: TNF reporter robust z-score = -0.28
COA1: TNF reporter robust z-score = -1.14
